Measurements published in patent US20200248271A1.
No constants are given. Whether binding was seen depends on the method and setting. Binding seen in cells or lysates may run through a third protein. Some binding calls cover weakened binding; strength is not graded here.

Protein sequences, listed by entry. Tags and fused reporters are not part of them. Residues count along the entry.
UniProt P27986, residues 2-724: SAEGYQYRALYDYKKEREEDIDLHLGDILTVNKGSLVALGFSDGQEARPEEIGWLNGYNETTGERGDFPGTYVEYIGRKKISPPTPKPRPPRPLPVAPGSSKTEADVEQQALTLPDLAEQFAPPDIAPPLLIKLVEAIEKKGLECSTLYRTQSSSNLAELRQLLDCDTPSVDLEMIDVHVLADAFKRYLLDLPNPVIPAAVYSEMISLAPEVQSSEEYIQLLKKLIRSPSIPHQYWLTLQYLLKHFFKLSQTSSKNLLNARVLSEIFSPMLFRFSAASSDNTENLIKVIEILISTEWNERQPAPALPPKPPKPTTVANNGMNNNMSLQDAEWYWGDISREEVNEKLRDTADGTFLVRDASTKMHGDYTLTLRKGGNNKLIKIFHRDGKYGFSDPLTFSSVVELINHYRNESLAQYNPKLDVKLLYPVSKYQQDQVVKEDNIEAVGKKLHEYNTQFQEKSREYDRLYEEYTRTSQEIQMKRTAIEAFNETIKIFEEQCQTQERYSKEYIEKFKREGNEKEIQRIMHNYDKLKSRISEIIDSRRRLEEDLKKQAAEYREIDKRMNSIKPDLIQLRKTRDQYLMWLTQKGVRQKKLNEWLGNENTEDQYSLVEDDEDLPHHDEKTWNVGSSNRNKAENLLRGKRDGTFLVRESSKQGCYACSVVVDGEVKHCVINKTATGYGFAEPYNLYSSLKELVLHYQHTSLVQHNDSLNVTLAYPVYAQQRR
UniProt P35568: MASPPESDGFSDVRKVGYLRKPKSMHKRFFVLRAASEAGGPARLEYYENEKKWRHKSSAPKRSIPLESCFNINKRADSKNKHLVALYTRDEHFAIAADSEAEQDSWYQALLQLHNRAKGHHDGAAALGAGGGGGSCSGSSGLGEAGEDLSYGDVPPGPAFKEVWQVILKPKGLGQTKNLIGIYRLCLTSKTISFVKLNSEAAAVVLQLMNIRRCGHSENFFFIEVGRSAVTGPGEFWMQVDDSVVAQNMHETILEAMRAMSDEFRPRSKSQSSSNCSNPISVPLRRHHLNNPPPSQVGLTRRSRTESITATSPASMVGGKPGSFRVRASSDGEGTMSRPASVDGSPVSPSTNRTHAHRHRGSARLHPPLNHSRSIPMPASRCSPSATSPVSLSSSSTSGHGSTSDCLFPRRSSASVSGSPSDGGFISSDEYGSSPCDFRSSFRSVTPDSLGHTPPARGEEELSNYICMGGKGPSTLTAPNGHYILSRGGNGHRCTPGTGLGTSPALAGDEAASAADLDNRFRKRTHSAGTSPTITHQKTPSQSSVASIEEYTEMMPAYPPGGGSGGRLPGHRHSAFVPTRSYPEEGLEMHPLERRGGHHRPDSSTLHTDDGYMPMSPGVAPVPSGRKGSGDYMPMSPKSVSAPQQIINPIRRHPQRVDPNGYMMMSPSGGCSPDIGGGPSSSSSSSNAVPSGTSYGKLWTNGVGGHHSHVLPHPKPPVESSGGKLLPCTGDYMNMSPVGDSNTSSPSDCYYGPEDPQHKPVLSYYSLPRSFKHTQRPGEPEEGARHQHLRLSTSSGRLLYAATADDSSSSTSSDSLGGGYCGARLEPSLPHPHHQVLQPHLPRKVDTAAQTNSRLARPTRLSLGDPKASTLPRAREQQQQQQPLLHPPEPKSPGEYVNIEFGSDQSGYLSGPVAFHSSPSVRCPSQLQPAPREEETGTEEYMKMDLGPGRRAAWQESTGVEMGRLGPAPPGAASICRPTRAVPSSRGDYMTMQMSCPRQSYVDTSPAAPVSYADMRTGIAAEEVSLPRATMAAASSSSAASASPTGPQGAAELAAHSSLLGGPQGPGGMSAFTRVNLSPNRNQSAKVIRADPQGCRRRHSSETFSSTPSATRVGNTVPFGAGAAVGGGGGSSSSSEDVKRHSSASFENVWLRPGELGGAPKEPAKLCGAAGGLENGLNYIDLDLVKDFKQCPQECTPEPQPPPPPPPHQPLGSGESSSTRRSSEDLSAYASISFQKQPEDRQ

Biological target: regulatory subunit (p85) of PI3K (human) (UniProt P27986)
Assay: co-immunoprecipitation and immunoblotting, lysate of CDK12-overexpressing ZR-75-30 cells

binding: binds
Substance: insulin receptor substrate 1 (IRS1) (from UniProt P35568 1-1242)
